Source: the supplement of paper PMC10849652
Some of the results follow. Residues, ends and D or L forms follow the SMILES beside them. *: point of attachment. Cbz = O=C(OCc1ccccc1)*

Amino acid sequences for entries named in this document (tags omitted). A change or cut given only in a name is not applied to a line headed by its entry.
UniProt P54802: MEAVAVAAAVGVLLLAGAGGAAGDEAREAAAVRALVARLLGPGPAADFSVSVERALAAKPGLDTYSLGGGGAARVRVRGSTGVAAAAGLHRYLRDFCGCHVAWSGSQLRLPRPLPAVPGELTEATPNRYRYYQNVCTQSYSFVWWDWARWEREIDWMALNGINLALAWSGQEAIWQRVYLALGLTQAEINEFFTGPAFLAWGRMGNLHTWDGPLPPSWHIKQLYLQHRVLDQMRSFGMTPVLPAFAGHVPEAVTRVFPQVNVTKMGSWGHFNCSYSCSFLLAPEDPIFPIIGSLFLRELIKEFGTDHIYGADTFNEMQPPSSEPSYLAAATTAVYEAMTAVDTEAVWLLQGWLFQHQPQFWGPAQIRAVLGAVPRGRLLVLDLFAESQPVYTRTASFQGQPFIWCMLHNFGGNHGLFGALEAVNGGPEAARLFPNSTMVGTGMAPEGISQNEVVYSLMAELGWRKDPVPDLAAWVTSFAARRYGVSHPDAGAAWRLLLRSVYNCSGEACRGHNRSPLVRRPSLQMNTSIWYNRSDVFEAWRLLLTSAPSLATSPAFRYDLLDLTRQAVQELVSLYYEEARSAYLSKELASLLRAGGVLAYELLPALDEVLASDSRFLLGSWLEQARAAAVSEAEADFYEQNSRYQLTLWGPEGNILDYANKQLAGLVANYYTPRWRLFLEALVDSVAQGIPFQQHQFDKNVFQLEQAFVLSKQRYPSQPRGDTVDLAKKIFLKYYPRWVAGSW
UniProt Q6PIU2: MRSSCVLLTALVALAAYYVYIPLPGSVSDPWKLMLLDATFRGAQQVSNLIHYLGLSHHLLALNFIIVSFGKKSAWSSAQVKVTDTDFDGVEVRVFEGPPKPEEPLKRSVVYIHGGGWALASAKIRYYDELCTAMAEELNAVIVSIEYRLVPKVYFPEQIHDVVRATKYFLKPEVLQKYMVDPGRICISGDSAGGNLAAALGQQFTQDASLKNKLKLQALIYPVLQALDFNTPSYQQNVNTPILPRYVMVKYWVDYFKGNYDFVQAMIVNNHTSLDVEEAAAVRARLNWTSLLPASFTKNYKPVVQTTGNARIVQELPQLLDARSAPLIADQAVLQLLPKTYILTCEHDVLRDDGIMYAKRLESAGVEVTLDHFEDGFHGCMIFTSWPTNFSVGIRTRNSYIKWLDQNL
UniProt P42695: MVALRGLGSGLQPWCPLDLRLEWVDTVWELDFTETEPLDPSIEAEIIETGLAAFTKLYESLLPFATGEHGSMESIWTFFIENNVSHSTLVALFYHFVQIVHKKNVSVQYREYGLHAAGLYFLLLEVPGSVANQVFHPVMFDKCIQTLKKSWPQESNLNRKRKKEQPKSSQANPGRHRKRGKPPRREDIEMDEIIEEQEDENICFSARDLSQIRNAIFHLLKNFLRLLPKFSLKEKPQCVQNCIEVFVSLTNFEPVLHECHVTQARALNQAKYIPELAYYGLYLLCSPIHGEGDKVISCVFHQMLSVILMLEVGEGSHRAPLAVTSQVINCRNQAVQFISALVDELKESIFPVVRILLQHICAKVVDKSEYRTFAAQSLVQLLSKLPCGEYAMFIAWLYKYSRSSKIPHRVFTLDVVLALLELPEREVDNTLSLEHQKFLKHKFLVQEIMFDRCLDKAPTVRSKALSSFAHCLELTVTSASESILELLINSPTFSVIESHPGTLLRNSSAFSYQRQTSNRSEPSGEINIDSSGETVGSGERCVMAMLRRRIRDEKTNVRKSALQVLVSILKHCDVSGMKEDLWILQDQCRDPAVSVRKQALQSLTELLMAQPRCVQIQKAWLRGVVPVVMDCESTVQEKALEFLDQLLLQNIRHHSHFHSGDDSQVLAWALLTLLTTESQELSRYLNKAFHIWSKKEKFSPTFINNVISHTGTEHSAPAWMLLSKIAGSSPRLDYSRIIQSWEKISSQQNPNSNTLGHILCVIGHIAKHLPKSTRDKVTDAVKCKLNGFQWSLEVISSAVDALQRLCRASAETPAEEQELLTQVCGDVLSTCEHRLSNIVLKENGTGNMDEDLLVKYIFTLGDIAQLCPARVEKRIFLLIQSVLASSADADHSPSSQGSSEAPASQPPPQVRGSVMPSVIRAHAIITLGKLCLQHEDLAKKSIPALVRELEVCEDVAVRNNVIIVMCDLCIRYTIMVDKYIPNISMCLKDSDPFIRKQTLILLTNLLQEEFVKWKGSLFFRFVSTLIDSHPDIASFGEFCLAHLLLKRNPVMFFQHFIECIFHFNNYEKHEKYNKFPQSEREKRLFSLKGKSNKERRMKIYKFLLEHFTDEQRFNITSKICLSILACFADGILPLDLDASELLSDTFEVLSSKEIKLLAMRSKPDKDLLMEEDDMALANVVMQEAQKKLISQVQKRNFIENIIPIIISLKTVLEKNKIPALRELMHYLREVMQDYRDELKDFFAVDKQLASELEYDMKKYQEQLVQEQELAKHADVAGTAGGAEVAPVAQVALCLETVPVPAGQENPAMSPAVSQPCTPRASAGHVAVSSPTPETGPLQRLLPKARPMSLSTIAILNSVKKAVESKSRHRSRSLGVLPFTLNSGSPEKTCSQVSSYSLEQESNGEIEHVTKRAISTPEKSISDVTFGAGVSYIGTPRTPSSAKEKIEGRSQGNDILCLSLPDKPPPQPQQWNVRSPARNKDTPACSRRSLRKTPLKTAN
UniProt Q9Y5N5: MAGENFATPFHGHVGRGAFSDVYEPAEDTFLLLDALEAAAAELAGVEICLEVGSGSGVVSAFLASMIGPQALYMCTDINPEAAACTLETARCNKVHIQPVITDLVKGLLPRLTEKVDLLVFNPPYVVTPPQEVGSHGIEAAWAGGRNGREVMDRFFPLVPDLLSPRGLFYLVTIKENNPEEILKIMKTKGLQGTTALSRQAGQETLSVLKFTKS
UniProt Q9Y6M9, whole entry, looked up: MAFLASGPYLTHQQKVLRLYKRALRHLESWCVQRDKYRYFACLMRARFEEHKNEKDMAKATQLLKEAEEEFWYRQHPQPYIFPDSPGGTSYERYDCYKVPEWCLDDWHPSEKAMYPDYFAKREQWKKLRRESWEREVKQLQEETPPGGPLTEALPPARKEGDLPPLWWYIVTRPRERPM
UniProt Q6IA69: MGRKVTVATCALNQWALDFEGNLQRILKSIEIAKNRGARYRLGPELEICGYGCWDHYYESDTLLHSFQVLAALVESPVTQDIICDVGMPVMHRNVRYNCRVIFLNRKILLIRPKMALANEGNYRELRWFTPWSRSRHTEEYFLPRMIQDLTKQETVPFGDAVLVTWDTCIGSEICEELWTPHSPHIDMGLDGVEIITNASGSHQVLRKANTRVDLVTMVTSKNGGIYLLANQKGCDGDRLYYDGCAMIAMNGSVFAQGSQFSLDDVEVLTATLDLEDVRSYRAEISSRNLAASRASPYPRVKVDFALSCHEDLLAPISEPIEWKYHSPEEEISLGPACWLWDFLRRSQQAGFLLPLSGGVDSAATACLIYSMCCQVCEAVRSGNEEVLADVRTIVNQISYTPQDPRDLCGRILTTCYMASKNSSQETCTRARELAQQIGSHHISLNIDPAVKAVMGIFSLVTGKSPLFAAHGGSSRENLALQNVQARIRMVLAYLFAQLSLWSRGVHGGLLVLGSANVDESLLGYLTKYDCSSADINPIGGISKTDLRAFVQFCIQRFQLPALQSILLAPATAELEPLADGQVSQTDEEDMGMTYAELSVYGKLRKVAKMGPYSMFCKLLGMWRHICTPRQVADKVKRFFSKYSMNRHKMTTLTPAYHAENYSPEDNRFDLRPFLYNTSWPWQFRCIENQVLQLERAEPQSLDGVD
UniProt Q969V3: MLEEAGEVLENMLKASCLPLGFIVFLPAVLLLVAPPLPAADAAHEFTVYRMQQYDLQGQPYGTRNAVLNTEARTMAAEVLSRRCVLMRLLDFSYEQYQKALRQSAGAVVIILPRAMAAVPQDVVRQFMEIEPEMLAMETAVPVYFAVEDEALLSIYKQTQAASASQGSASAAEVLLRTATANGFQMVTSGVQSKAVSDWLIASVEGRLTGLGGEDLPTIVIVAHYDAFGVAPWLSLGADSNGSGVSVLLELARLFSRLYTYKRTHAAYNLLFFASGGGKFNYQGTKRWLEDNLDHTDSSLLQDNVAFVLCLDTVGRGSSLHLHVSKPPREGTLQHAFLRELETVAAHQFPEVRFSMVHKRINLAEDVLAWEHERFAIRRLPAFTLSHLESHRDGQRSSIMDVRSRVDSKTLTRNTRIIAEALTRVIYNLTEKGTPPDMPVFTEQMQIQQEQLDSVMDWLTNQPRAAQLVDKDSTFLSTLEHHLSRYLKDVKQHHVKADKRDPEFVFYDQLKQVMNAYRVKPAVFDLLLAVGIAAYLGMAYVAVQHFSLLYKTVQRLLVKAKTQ
UniProt O95139, whole entry, looked up: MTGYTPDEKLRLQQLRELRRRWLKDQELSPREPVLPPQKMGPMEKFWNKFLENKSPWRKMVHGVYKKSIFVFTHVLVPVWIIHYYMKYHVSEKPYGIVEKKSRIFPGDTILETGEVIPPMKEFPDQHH
UniProt Q9NX14, whole entry, looked up: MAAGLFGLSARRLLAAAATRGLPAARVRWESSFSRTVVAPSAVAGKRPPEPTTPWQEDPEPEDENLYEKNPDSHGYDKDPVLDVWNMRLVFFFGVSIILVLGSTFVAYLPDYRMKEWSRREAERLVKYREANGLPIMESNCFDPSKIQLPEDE
UniProt P52298: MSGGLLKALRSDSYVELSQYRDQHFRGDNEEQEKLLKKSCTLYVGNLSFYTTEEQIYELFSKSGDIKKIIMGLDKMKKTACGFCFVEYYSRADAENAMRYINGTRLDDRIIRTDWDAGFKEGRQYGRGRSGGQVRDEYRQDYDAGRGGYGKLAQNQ
UniProt Q13564: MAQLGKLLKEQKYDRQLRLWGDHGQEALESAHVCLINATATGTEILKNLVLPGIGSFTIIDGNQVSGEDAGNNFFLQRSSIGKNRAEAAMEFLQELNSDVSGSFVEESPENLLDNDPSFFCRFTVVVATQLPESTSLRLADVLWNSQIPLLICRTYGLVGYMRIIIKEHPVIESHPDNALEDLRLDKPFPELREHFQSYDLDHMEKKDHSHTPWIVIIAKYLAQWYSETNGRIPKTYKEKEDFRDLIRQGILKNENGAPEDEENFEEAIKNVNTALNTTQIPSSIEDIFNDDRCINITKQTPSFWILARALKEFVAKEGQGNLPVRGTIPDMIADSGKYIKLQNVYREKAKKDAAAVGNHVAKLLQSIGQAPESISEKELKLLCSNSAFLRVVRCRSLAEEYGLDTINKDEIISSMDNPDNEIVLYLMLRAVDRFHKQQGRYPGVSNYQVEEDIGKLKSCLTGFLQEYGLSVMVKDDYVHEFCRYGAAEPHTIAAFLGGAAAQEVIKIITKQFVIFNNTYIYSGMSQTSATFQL
UniProt Q4G0N4: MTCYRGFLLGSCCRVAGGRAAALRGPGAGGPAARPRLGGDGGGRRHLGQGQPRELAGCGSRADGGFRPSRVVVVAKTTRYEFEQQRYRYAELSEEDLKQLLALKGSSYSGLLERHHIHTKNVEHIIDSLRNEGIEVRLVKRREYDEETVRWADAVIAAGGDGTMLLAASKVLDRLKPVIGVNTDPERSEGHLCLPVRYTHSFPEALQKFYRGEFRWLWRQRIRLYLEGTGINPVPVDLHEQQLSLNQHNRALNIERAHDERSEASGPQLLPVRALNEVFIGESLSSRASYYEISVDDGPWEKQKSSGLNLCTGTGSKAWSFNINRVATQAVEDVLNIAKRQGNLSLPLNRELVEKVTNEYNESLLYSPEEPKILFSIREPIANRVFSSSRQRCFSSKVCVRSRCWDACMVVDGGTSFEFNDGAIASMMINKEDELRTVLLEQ
UniProt Q7L592: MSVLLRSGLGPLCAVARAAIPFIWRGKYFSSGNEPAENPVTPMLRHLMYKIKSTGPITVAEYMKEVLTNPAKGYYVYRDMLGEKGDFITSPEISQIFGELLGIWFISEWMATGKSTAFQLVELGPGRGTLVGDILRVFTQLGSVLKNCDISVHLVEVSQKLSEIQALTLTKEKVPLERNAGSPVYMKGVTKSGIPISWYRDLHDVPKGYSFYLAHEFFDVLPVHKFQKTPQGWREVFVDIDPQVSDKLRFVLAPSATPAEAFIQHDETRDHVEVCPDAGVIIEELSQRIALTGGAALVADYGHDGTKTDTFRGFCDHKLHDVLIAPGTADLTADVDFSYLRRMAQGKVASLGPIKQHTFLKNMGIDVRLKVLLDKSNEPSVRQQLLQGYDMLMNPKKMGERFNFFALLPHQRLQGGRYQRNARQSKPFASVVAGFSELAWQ

Key:
Assay in all cases: log2 fold change, soluble protein after heating vs DMSO (PISA); higher = thermal stabilisation; K562 cells, 10 uM, 30 min; active = over 0.2 and 3.5 SD of the protein, either way, in both replicates (recomputed)
erlotinib = compound: C#Cc1cccc(Nc2ncnc3cc(OCCOC)c(OCCOC)cc23)c1 [erlotinib]
Outline: (§1)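 K562 cells at 2×10^6 cells/mL were exposed to 10 μM compound for 30 min, then aliquots were heated for 3 min across 48°C-58°C, pooled, and extracted in PBS containing 0.5% NP-40 at 4°C. The supernatant after 21,000xg for 90 min was taken as soluble protein and measured by TMTpro 16plex LC-MS/MS with channel sums equalised. Thermal stability is reported relative to control samples, with values from duplicates. Fold changes are given on a log2 scale.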

[1] = compound: C/C(=N\NC(=O)C1=CC(=CC=C1)S(=O)(=O)N2CCOCC2)/C3=C(C=CC(=C3)Cl)O
Outline: as §1

[2] = compound: C1=CC(=C(C=C1Cl)C2=NC3=NC=CN=C3C(=N2)NC4=CC=NC=C4)F
Outline: as §1

[3] = compound: C1=CC(=CC=C1C2=NC3=C(N2)C=C(C=C3)C(=O)N)OC4=CC=C(C=C4)Cl
Outline: as §1

[4] = compound: C1=CC2=C(C=CC(=C2)/C=C\3/C(=O)NC(=NCC4=CC=CS4)S3)N=C1
Outline: as §1

[5] = compound: C1=CC2=NC=CN=C2C=C1/C=C/3\C(=O)NC(=O)S3
Outline: as §1

[6] = compound: C1=CC=C(C=C1)C2=NC(=C(N2)C3=CC=NC=C3)C4=CC(=C(C=C4)Cl)O
Outline: as §1

[7] = compound: C1=CC=C2C(=C1)C3=NNC4=CC=CC(=C43)C2=O
Outline: as §1

[8] = compound: C1CCN(C1)C(=O)NC2=CC=CC(=C2)NC3=NC=C(C(=N3)NCCC4=CN=CN4)Br
Outline: as §1

[9] = compound: C1CN(CCC1(CC2=CC=C(C=C2)Cl)N)C3=NC=NC4=C3C=CN4
Outline: as §1

IRAK-1-4 Inhibitor I = compound: C1COCCN1CCN2C3=CC=CC=C3N=C2NC(=O)C4=CC(=CC=C4)[N+](=O)[O-] [IRAK-1-4 Inhibitor I]
Outline: as §1

ibrutinib = compound: C=CC(=O)N1CCC[C@@H](n2nc(-c3ccc(Oc4ccccc4)cc3)c3c(N)ncnc32)C1 [ibrutinib]
Outline: as §1

[10] = compound: CC(=O)c1cnc2ccc(-c3cc(Cl)c(O)c(Cl)c3)nc2c1N[C@H]1CC[C@H](CN(C)C)CC1
Outline: as §1

ralimetinib = compound: CC(C)(C)Cn1c(N)nc2ccc(-c3[nH]c(C(C)(C)C)nc3-c3ccc(F)cc3)nc21 [ralimetinib]
Outline: as §1

[11] = compound: CC(C)(O)CC(=O)NCCn1ccc2ncnc(Nc3ccc(Oc4cccc(C(F)(F)F)c4)c(Cl)c3)c21
Outline: as §1

[12] = compound: CC(C)C1=C2N=C(C=C(N2N=C1)NCC3=CC=CC=C3)NCCCCCCN
Outline: as §1

[13] = compound: CC(C)C[C@@H](C=O)NC(=O)[C@H](CC(C)C)NC(=O)[C@H](CC(C)C)NC(=O)OCc1ccccc1
Outline: as §1

pinometostat = compound: CC(C)N(C[C@H]1O[C@@H](n2cnc3c(N)ncnc32)[C@H](O)[C@@H]1O)[C@H]1C[C@@H](CCc2nc3cc(C(C)(C)C)ccc3[nH]2)C1 [pinometostat]
Outline: as §1

[14] = compound: CC1=C(C(CC(=O)N1)C2=CC=C(C=C2)C(F)(F)F)C(=O)NC3=C(C=C4C(=C3)C=NN4)F
Outline: as §1

[15] = compound: CC1=C(C2=C(C=C1)C(=O)C3=CC=CC=C3N2CCCN)C
Outline: as §1

Measured: log2 fold change

NAGLU (UniProt P54802)
inactive: erlotinib -0.027 | [1] 0.062 | [2] 0.027 | [3] 0.008 | [4] -0.103 | [5] 0.009 | [6] -0.004 | [7] 0.129 | [8] -0.045 | [9] 0.013 | IRAK-1-4 Inhibitor I 0.066 | ibrutinib 0.055 | [10] 0.121 | ralimetinib 0.001 | [11] 0.114 | [12] -0.012 | [13] -0.054 | pinometostat 0.046 | [14] -0.005 | [15] 0.013

NCEH1 isoform 2 (UniProt Q6PIU2)
inactive: erlotinib -0.032 | [1] -0.005 | [2] 0.036 | [3] 0.012 | [4] 0.025 | [5] 0.074 | [6] -0.014 | [7] 0 | [8] 0.033 | [9] 0.083 | IRAK-1-4 Inhibitor I -0.011 | ibrutinib 0.026 | [10] 0.003 | ralimetinib -0.031 | [11] 0.001 | [12] 0.004 | [13] -0.027 | pinometostat -0.005 | [14] 0.023 | [15] -0.003

NCAPD3 (UniProt P42695)
inactive: erlotinib 0.022 | [1] -0.024 | [2] -0.039 | [3] -0.048 | [4] 0.009 | [5] -0.005 | [6] -0.028 | [7] -0.081 | [8] -0.024 | [9] -0.043 | IRAK-1-4 Inhibitor I -0.041 | ibrutinib -0.056 | [10] -0.038 | ralimetinib -0.028 | [11] -0.065 | [12] -0.013 | [13] 0.039 | pinometostat 0.059 | [14] -0.019 | [15] 0.11

N6AMT1 (UniProt Q9Y5N5)
inactive: erlotinib 0.014 | [1] 0.068 | [2] 0.03 | [3] 0.043 | [4] 0.108 | [5] -0.017 | [6] -0.01 | [7] 0.055 | [8] -0.057 | [9] -0.001 | IRAK-1-4 Inhibitor I -0.107 | ibrutinib -0.042 | [10] -0.054 | ralimetinib -0.118 | [11] 0.026 | [12] 0.054 | [13] 0.034 | pinometostat -0.123 | [14] 0.01 | [15] 0.203

NAPRT (UniProt Q6XQN6)
inactive: erlotinib 0.014 | [1] 0.022 | [2] 0.029 | [3] -0.017 | [4] 0.014 | [5] 0.018 | [6] 0.005 | [7] -0.019 | [8] 0.012 | [9] 0.041 | IRAK-1-4 Inhibitor I 0.009 | ibrutinib -0.013 | [10] 0.003 | ralimetinib -0.039 | [11] -0.025 | [12] 0.024 | [13] -0.05 | pinometostat -0.035 | [14] 0.028 | [15] 0.015

NDUFB9 (UniProt Q9Y6M9)
inactive: erlotinib 0.011 | [1] 0.025 | [2] 0.018 | [3] 0.009 | [4] 0.026 | [5] -0.013 | [6] 0.041 | [7] -0.036 | [8] -0.002 | [9] 0.06 | IRAK-1-4 Inhibitor I 0.049 | ibrutinib 0.018 | [10] 0.01 | ralimetinib -0.016 | [11] -0.026 | [12] -0.075 | [13] -0.008 | pinometostat -0.024 | [14] -0.028 | [15] 0.028

NADSYN1 (UniProt Q6IA69)
inactive: erlotinib -0.028 | [1] 0.012 | [2] -0.011 | [3] 0.026 | [4] -0.018 | [5] -0.033 | [6] 0.097 | [7] -0.02 | [8] -0.029 | [9] 0.048 | IRAK-1-4 Inhibitor I 0.062 | ibrutinib 0.011 | [10] -0.013 | ralimetinib -0.008 | [11] -0.023 | [12] 0.061 | [13] -0.007 | pinometostat -0.007 | [14] 0.025 | [15] 0.018

NCLN (UniProt Q969V3)
inactive: erlotinib -0.005 | [1] -0.029 | [2] 0 | [3] -0.027 | [4] -0.011 | [5] 0.014 | [6] -0.013 | [7] 0.001 | [8] 0.006 | [9] 0.052 | IRAK-1-4 Inhibitor I 0.02 | ibrutinib -0.021 | [10] 0.02 | ralimetinib 0.008 | [11] 0.003 | [12] -0.102 | [13] -0.004 | pinometostat 0.049 | [14] -0.004 | [15] -0.022

NACA4P (UniProt Q9BZK3)
inactive: erlotinib 0.152 | [1] 0.05 | [2] 0.071 | [3] -0.081 | [4] -0.178 | [5] 0.233 | [6] 0.098 | [7] 0.152 | [8] -0.163 | [9] 0.045 | IRAK-1-4 Inhibitor I -0.027 | ibrutinib -0.018 | [10] 0.082 | ralimetinib 0.021 | [11] -0.028 | [12] 0.345 | [13] -0.063 | pinometostat -0.097 | [14] -0.11 | [15] 0.149

NDUFB6 (UniProt O95139)
inactive: erlotinib -0.013 | [1] -0.026 | [2] -0.009 | [3] 0.019 | [4] -0.064 | [5] 0.016 | [6] -0.002 | [7] -0.016 | [8] 0.038 | [9] -0.036 | IRAK-1-4 Inhibitor I 0.011 | ibrutinib 0.034 | [10] -0.03 | ralimetinib -0.079 | [11] 0.025 | [12] -0.06 | [13] 0.019 | pinometostat -0.023 | [14] 0.033 | [15] -0.098

Fetched one by one from above, 2 records:
NDUFB9 (UniProt Q9Y6M9)
inactive: erlotinib 0.011 | [1] 0.025 | [2] 0.018 | [3] 0.009 | [4] 0.026 | [5] -0.013 | [6] 0.041 | [7] -0.036 | [8] -0.002 | [9] 0.06 | IRAK-1-4 Inhibitor I 0.049 | ibrutinib 0.018 | [10] 0.01 | ralimetinib -0.016 | [11] -0.026 | [12] -0.075 | [13] -0.008 | pinometostat -0.024 | [14] -0.028 | [15] 0.028

NADSYN1 (UniProt Q6IA69)
inactive: erlotinib -0.028 | [1] 0.012 | [2] -0.011 | [3] 0.026 | [4] -0.018 | [5] -0.033 | [6] 0.097 | [7] -0.02 | [8] -0.029 | [9] 0.048 | IRAK-1-4 Inhibitor I 0.062 | ibrutinib 0.011 | [10] -0.013 | ralimetinib -0.008 | [11] -0.023 | [12] 0.061 | [13] -0.007 | pinometostat -0.007 | [14] 0.025 | [15] 0.018

(list continues)

NCAPG2 isoform 2 (UniProt Q86XI2)
inactive: erlotinib 0.011 | [1] 0.086 | [2] -0.156 | [3] -0.225 | [4] 0.037 | [5] 0.06 | [6] -0.087 | [7] -0.044 | [8] -0.087 | [9] -0.295 | IRAK-1-4 Inhibitor I -0.096 | ibrutinib -0.006 | [10] 0.038 | ralimetinib 0.028 | [11] 0.014 | [12] -0.137 | [13] 0.198 | pinometostat -0.132 | [14] 0.128 | [15] 0.126

NDUFB11 isoform 2 (UniProt Q9NX14)
inactive: erlotinib -0.023 | [1] 0.055 | [2] 0.105 | [3] 0.047 | [4] 0.044 | [5] 0.012 | [6] 0.016 | [7] -0.016 | [8] -0.009 | [9] -0.037 | IRAK-1-4 Inhibitor I 0.054 | ibrutinib -0.003 | [10] 0 | ralimetinib -0.003 | [11] 0.013 | [12] -0.024 | [13] -0.001 | pinometostat -0.057 | [14] 0.007 | [15] 0.069

NCBP2 (UniProt P52298)
inactive: erlotinib 0.02 | [1] -0.068 | [2] 0.05 | [3] -0.023 | [4] -0.034 | [5] 0.01 | [6] 0.024 | [7] 0.025 | [8] -0.032 | [9] 0.018 | IRAK-1-4 Inhibitor I 0.095 | ibrutinib -0.017 | [10] -0.001 | ralimetinib 0.001 | [11] 0.005 | [12] 0.039 | [13] -0.009 | pinometostat -0.049 | [14] -0.021 | [15] 0.105

NAE1 (UniProt Q13564)
inactive: erlotinib 0.007 | [1] 0.048 | [2] -0.025 | [3] 0.009 | [4] 0.062 | [5] 0.007 | [6] 0.034 | [7] -0.004 | [8] -0.02 | [9] 0.007 | IRAK-1-4 Inhibitor I -0.005 | ibrutinib -0.028 | [10] -0.095 | ralimetinib -0.005 | [11] -0.084 | [12] -0.111 | [13] 0.065 | pinometostat -0.032 | [14] -0.05 | [15] 0.045

NADK2 (UniProt Q4G0N4)
inactive: erlotinib 0.019 | [1] 0.022 | [2] 0.079 | [3] -0.019 | [4] 0.027 | [5] 0.034 | [6] -0.022 | [7] -0.074 | [8] 0.025 | [9] 0.048 | IRAK-1-4 Inhibitor I 0.05 | ibrutinib 0.026 | [10] -0.009 | ralimetinib -0.026 | [11] -0.016 | [12] 0.023 | [13] 0.016 | pinometostat -0.013 | [14] -0.003 | [15] 0.021

NDUFAF7 (UniProt Q7L592)
inactive: erlotinib 0.055 | [1] -0.001 | [2] 0.044 | [3] 0.013 | [4] 0.307 | [5] -0.075 | [6] 0.122 | [7] 0.073 | [8] -0.064 | [9] 0.014 | IRAK-1-4 Inhibitor I 0.065 | ibrutinib 0.038 | [10] -0.129 | ralimetinib 0.111 | [11] -0.15 | [12] -0.216 | [13] 0.051 | pinometostat -0.049 | [14] -0.013 | [15] 0.093
